{
  "source": "patent US20170014524A1",
  "about": "(The California Institute for Biomedical Research, priority 2015, published 2017)",
  "assay": "general procedure: solution-phase peptide synthesis; HATU/DIPEA; BOP; EDCI/NHS",
  "details": "coupling step, for three steps",
  "data": [
    {"substance": "NHS-ValCit-MMAE Step 3 amine", "values": [
      {"measurement": "step yield", "value": 26, "unit": "%"}
    ]}
  ]
}
